The other results are listed elsewhere or left out.
Experiments:
Test in all cases: log2 fold change, soluble protein after heating vs DMSO (PISA); higher = thermal stabilisation; K562 lysate, 10 uM; active = over 0.2 and 3.5 SD of the protein, either way, in both replicates (recomputed)
alvocidib = compound: CN1CC[C@H](c2c(O)cc(O)c3c(=O)cc(-c4ccccc4Cl)oc23)[C@H](O)C1 [alvocidib]
Outline: (§1)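 Pellets of K562 cells were dounce-homogenised in PBS pH 7.4 with 1 mM MgCl2, and the crude extract was held at 1 mg/mL protein for a 30 min treatment with 10 μM compound. Aliquots were heated for 3 min over 48°C-58°C and pooled before NP-40 was added to 0.5% at 4°C. The supernatant from 21,000xg for 90 min was quantified by TMTpro 16plex LC-MS/MS with channel sums equalised. Values are reported from duplicates as log-two fold change in thermal stability relative to solvent controls.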

Amino acid sequences for entries named in this document (tags omitted). A change or cut given only in a name is not applied to a line headed by its entry.
UniProt Q9UGJ1, whole entry, looked up: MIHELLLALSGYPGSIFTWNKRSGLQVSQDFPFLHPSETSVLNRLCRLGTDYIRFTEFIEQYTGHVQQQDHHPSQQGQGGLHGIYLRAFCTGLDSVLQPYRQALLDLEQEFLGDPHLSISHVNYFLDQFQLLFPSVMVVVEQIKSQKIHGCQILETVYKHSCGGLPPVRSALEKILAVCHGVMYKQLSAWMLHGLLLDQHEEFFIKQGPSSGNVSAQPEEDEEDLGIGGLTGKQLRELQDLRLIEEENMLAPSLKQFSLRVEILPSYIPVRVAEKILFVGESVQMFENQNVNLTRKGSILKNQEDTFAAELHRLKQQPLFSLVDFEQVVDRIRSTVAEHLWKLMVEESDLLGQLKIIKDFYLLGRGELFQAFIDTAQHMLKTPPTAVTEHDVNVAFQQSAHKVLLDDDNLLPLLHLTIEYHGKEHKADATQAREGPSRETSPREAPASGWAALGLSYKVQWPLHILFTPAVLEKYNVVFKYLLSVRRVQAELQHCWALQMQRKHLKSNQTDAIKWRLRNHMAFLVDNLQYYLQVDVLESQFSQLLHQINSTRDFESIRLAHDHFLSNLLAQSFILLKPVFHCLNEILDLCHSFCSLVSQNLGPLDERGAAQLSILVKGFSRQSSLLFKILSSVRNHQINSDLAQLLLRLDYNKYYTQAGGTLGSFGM
UniProt P61088: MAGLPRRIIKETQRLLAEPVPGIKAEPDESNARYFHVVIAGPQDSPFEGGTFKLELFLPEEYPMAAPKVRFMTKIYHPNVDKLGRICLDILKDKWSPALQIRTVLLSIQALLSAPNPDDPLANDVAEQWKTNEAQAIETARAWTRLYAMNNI
UniProt Q9H832: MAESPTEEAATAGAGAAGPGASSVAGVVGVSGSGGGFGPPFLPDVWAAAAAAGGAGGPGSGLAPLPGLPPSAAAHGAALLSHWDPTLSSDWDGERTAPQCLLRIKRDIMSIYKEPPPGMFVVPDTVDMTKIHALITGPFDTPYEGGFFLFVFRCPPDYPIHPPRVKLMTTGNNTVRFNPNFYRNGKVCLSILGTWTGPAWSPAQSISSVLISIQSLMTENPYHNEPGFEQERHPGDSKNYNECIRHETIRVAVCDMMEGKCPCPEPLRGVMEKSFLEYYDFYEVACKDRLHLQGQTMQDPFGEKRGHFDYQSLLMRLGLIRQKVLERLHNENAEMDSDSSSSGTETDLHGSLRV
UniProt Q3B726, whole entry, looked up: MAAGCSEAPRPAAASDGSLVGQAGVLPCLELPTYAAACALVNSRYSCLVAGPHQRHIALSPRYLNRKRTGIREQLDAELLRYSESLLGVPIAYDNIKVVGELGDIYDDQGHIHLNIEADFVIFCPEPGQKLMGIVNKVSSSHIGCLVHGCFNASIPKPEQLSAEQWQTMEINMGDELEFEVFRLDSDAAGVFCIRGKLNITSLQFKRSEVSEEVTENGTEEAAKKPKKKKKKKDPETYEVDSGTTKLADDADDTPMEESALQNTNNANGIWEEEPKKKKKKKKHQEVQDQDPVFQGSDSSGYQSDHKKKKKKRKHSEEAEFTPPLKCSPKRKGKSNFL
UniProt Q13454: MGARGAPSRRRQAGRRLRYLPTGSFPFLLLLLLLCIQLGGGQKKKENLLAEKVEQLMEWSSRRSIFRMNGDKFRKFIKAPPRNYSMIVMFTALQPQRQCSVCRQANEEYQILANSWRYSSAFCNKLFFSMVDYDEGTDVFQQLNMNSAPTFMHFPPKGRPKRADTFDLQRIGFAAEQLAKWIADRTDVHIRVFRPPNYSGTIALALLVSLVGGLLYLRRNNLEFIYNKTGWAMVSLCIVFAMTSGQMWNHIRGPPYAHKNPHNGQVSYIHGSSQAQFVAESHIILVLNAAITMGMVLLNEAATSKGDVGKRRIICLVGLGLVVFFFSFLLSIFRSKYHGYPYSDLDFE
UniProt Q9H4B7, whole entry, looked up: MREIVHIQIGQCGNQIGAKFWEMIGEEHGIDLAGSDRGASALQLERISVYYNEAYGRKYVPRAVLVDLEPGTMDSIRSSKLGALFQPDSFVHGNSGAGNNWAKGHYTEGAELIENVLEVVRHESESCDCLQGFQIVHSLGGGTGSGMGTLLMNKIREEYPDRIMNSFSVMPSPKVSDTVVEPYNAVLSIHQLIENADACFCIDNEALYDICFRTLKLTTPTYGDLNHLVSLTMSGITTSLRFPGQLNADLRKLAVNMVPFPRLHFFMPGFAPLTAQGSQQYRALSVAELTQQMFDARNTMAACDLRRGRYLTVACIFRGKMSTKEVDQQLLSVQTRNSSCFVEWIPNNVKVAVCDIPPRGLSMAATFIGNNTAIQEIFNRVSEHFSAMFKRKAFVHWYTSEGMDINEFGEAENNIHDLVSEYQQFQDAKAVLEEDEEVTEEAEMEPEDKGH
UniProt O95881: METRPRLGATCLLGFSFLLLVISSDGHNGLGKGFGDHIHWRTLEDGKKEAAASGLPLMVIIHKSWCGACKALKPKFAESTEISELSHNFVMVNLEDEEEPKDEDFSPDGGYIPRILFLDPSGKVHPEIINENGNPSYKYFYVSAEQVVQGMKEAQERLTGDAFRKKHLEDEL
UniProt P07437, whole entry, looked up: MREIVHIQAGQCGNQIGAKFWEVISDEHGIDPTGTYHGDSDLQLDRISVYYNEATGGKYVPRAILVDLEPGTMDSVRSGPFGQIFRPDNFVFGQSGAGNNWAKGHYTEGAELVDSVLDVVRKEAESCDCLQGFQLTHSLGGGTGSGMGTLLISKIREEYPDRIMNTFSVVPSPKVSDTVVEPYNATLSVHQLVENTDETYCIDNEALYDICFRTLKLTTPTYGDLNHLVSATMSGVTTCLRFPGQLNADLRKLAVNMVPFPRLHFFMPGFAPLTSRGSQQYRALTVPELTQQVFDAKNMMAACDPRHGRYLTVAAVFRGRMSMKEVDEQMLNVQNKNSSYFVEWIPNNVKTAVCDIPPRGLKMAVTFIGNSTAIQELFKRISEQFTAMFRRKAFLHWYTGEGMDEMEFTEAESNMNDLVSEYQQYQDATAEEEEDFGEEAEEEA
UniProt Q969M7: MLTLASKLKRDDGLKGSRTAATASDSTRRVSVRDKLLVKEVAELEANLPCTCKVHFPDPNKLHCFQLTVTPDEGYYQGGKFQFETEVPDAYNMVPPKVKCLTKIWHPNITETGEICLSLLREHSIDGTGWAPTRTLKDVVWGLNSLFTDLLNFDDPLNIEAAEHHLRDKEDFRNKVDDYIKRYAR
UniProt Q8IWV8: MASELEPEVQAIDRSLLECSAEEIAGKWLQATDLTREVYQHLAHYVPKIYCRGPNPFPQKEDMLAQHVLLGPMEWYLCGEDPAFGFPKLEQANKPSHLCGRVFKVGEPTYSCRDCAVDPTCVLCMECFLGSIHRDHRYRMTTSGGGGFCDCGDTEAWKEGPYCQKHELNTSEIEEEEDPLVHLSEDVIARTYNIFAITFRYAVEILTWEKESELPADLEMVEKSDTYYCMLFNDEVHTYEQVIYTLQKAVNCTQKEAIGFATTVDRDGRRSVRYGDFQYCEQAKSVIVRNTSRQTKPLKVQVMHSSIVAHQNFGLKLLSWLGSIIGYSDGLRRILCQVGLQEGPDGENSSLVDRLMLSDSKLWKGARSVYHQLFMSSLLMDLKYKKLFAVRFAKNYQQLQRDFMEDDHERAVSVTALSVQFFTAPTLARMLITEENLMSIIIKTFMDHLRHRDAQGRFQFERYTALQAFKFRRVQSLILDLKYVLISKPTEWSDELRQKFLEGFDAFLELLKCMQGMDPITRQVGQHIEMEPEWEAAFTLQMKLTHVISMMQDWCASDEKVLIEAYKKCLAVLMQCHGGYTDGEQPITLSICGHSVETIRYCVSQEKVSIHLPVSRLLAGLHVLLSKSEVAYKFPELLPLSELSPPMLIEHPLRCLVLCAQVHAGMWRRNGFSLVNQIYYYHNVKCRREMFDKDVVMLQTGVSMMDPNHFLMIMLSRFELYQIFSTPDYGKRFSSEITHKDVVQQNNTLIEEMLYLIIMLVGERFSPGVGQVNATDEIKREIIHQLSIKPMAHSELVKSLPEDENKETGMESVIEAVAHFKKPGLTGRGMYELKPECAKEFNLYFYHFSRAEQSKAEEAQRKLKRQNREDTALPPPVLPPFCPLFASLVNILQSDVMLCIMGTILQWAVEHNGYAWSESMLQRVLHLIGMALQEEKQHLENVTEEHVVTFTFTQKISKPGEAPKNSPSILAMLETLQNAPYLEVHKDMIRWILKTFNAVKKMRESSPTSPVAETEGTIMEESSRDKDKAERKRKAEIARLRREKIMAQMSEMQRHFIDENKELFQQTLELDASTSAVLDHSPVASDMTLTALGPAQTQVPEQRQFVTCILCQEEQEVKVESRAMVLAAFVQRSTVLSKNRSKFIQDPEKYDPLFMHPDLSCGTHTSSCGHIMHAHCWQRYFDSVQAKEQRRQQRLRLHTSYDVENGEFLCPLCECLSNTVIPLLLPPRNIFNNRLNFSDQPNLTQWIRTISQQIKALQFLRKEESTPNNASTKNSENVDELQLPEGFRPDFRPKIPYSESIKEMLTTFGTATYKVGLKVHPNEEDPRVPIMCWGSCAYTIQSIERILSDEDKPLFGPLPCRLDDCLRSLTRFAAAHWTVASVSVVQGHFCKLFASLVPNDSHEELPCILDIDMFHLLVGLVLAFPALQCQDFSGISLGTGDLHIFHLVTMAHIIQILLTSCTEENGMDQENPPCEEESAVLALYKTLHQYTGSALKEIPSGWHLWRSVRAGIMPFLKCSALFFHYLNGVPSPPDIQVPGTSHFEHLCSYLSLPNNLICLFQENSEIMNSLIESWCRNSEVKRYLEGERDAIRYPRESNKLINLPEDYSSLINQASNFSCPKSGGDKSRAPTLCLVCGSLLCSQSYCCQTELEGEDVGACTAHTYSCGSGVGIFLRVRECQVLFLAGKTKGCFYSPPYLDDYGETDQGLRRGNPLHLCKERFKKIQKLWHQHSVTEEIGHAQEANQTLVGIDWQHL
UniProt Q92575: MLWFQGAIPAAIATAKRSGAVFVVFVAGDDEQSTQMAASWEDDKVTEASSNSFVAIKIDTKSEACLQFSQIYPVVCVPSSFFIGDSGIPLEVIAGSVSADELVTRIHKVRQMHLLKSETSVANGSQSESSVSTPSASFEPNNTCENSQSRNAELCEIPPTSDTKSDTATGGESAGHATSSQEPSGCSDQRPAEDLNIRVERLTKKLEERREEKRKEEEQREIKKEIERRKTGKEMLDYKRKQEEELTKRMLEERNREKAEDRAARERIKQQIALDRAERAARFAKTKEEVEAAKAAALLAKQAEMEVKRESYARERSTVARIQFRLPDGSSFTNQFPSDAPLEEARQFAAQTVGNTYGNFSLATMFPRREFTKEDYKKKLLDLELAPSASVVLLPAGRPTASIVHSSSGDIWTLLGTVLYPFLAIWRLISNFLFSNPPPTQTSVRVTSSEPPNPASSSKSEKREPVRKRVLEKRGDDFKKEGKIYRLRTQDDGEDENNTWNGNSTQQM
UniProt Q8WVY7: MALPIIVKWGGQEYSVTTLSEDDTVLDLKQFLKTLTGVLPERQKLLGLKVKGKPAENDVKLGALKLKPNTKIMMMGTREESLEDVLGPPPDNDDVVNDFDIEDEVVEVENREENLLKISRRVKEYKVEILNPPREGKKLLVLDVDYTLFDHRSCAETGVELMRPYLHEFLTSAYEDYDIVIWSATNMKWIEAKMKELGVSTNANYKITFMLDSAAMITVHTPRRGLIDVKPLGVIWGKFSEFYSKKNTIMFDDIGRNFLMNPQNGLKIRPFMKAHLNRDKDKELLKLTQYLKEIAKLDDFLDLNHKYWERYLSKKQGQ
UniProt Q9BSL1: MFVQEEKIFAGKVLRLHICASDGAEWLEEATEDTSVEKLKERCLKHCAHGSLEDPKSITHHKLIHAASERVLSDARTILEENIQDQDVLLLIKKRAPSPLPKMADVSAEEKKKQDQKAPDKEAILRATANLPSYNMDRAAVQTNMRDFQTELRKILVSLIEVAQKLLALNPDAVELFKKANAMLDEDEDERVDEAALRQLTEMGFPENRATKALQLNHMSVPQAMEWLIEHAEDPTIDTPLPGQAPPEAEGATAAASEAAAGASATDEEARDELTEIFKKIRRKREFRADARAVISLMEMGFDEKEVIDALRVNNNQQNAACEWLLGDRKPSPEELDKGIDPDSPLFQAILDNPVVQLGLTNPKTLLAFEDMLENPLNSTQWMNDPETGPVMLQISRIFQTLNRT
UniProt Q9BZX2: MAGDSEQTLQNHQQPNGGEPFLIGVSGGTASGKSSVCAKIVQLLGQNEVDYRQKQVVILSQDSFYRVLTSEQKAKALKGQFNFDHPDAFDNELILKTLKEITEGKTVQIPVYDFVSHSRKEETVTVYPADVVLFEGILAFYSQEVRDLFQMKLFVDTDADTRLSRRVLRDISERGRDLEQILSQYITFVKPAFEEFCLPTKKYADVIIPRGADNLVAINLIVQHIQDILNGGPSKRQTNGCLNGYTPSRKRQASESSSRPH
UniProt P15374: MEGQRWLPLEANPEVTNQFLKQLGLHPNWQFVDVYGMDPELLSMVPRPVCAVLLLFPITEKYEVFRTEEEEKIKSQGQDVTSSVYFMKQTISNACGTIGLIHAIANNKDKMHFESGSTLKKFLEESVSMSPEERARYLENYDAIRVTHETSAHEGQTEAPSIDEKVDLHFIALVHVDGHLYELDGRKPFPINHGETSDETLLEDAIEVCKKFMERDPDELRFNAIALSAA

Tubastatin A = compound: CN1CCc2c(c3ccccc3n2Cc2ccc(C(=O)NO)cc2)C1 [Tubastatin A]
Outline: as §1

[1] = compound: CNC(=O)C1=CC=CC=C1NC2=NC(=NC=C2Cl)NC3=C(C=C(C=C3)N4CCOCC4)OC
Outline: as §1

defactinib = compound: CNC(=O)c1ccc(Nc2ncc(C(F)(F)F)c(NCc3nccnc3N(C)S(C)(=O)=O)n2)cc1 [defactinib]
Outline: as §1

[2] = compound: CNc1nc(-c2ccc3c(N)n[nH]c3c2)cc(N2C[C@@H](C(=O)NC3CCCCC3)CC[C@H]2C)n1
Outline: as §1

encorafenib = compound: COC(=O)N[C@@H](C)CNc1nccc(-c2cn(C(C)C)nc2-c2cc(Cl)cc(NS(C)(=O)=O)c2F)n1 [encorafenib]
Outline: as §1

[3] = compound: COC(=O)[C@H](CCSC)NC(=O)C1=C(C=C(C=C1)NC[C@H](CS)N)C2=CC=CC=C2
Outline: as §1

alisertib = compound: COc1cc(Nc2ncc3c(n2)-c2ccc(Cl)cc2C(c2c(F)cccc2OC)=NC3)ccc1C(=O)O [alisertib]
Outline: as §1

[4] = compound: COc1cc2nc(-c3cc(F)ccc3O)nc(N[C@@H]3CNC[C@H]3C(C)(C)O)c2cc1OC
Outline: as §1

gefitinib = compound: COc1cc2ncnc(Nc3ccc(F)c(Cl)c3)c2cc1OCCCN1CCOCC1 [gefitinib]
Outline: as §1

lapatinib = compound: CS(=O)(=O)CCNCc1ccc(-c2ccc3ncnc(Nc4ccc(OCc5cccc(F)c5)c(Cl)c4)c3c2)o1 [lapatinib]
Outline: as §1

pictilisib = compound: CS(=O)(=O)N1CCN(Cc2cc3nc(-c4cccc5[nH]ncc45)nc(N4CCOCC4)c3s2)CC1 [pictilisib]
Outline: as §1

crizotinib = compound: C[C@@H](Oc1cc(-c2cnn(C3CCNCC3)c2)cnc1N)c1c(Cl)ccc(F)c1Cl [crizotinib]
Outline: as §1

[5] = compound: C[C@H](C1=CC=C(C=C1)C(=O)NC2=C3C=CNC3=NC=C2)N
Outline: as §1

duvelisib = compound: C[C@H](Nc1ncnc2nc[nH]c12)c1cc2cccc(Cl)c2c(=O)n1-c1ccccc1 [duvelisib]
Outline: as §1

gandotinib = compound: Cc1cc(Nc2cc(CN3CCOCC3)c3nc(C)c(Cc4ccc(Cl)cc4F)n3n2)n[nH]1 [gandotinib]
Outline: as §1

tozasertib = compound: Cc1cc(Nc2cc(N3CCN(C)CC3)nc(Sc3ccc(NC(=O)C4CC4)cc3)n2)n[nH]1 [tozasertib]
Outline: as §1

doramapimod = compound: Cc1ccc(-n2nc(C(C)(C)C)cc2NC(=O)Nc2ccc(OCCN3CCOCC3)c3ccccc23)cc1 [doramapimod]
Outline: as §1

bafetinib = compound: Cc1ccc(NC(=O)c2ccc(CN3CC[C@H](N(C)C)C3)c(C(F)(F)F)c2)cc1Nc1nccc(-c2cncnc2)n1 [bafetinib]
Outline: as §1

[6] = compound: Cc1cccc(CC(=O)N2CCc3c2ccc(-c2cn(C)c4ncnc(N)c24)c3F)n1
Outline: as §1

Measured: log2 fold change

TUBGCP4 (UniProt Q9UGJ1)
inactive: alvocidib 0 | Tubastatin A -0.081 | [1] 0.007 | defactinib -0.023 | [2] -0.025 | encorafenib -0.049 | [3] 0.047 | alisertib -0.007 | [4] -0.018 | gefitinib -0.043 | lapatinib -0.022 | pictilisib 0.011 | crizotinib -0.012 | [5] -0.007 | duvelisib 0.03 | gandotinib -0.125 | tozasertib -0.022 | doramapimod -0.041 | bafetinib -0.076 | [6] 0.019

U2AF2 (UniProt P26368)
inactive: alvocidib -0.188 | Tubastatin A 0.044 | [1] -0.063 | defactinib -0.093 | [2] -0.01 | encorafenib -0.002 | [3] -0.054 | alisertib 0.006 | [4] -0.027 | gefitinib -0.034 | lapatinib 0.015 | pictilisib -0.012 | crizotinib 0.009 | [5] -0.056 | duvelisib 0.008 | gandotinib -0.118 | tozasertib 0.005 | doramapimod 0.005 | bafetinib -0.044 | [6] 0.045

UBE2N (UniProt P61088)
inactive: alvocidib 0.015 | Tubastatin A 0.022 | [1] 0.002 | defactinib 0.028 | [2] 0.033 | encorafenib 0.02 | [3] -0.017 | alisertib 0.017 | [4] -0.003 | gefitinib -0.025 | lapatinib -0.008 | pictilisib -0.017 | crizotinib -0.004 | [5] 0.031 | duvelisib 0.055 | gandotinib -0.014 | tozasertib 0.022 | doramapimod 0.033 | bafetinib -0.007 | [6] 0.003

UBE2Z (UniProt Q9H832)
inactive: alvocidib -0.018 | Tubastatin A -0.036 | [1] 0.039 | defactinib -0.01 | [2] -0.062 | encorafenib 0.024 | [3] 0.009 | alisertib 0.026 | [4] 0.021 | gefitinib -0.021 | lapatinib 0.027 | pictilisib -0.037 | crizotinib 0.003 | [5] -0.104 | duvelisib -0.032 | gandotinib 0.028 | tozasertib -0.017 | doramapimod -0.002 | bafetinib -0.032 | [6] 0.039

TWISTNB (UniProt Q3B726)
inactive: alvocidib 0.042 | Tubastatin A -0.035 | [1] 0.002 | defactinib -0.021 | [2] 0.028 | encorafenib 0.067 | [3] 0.053 | alisertib -0.001 | [4] 0.023 | gefitinib 0.042 | lapatinib -0.033 | pictilisib -0.007 | crizotinib 0.061 | [5] 0.069 | duvelisib 0.007 | gandotinib -0.029 | tozasertib -0.037 | doramapimod -0.104 | bafetinib -0.094 | [6] -0.013

TUSC3 isoform 2 (UniProt Q13454)
inactive: alvocidib -0.08 | Tubastatin A 0.046 | [1] -0.049 | defactinib -0.013 | [2] 0.056 | encorafenib 0.003 | [3] -0.01 | alisertib 0.037 | [4] -0.005 | gefitinib -0.045 | lapatinib 0.038 | pictilisib 0 | crizotinib -0.024 | [5] -0.165 | duvelisib -0.009 | gandotinib 0.099 | tozasertib 0.006 | doramapimod 0.008 | bafetinib -0.073 | [6] 0.099

TUBB1 (UniProt Q9H4B7)
inactive: alvocidib 0.026 | Tubastatin A -0.059 | [1] 0.021 | defactinib 0.07 | [2] -0.005 | encorafenib -0.015 | [3] 0.071 | alisertib -0.013 | [4] -0.034 | gefitinib -0.047 | lapatinib -0.006 | pictilisib -0.007 | crizotinib -0.025 | [5] 0.093 | duvelisib -0.01 | gandotinib -0.015 | tozasertib -0.027 | doramapimod -0.046 | bafetinib 0.036 | [6] -0.06

TXNDC12 (UniProt O95881)
inactive: alvocidib 0.016 | Tubastatin A 0.02 | [1] -0.007 | defactinib 0.019 | [2] -0.058 | encorafenib 0.009 | [3] 0 | alisertib 0.018 | [4] -0.005 | gefitinib 0.001 | lapatinib -0.007 | pictilisib 0.014 | crizotinib 0.016 | [5] 0.024 | duvelisib 0.021 | gandotinib -0.013 | tozasertib 0.054 | doramapimod 0.017 | bafetinib 0.019 | [6] -0.028

TUBB (UniProt P07437)
inactive: alvocidib 0.01 | Tubastatin A -0.035 | [1] -0.001 | defactinib 0.007 | [2] 0.007 | encorafenib -0.013 | [3] 0.081 | alisertib 0.014 | [4] -0.012 | gefitinib -0.031 | lapatinib -0.035 | pictilisib -0.002 | crizotinib -0.043 | [5] -0.005 | duvelisib 0.008 | gandotinib 0.065 | tozasertib -0.022 | doramapimod -0.047 | bafetinib 0.024 | [6] -0.01

UBE2F isoform 2 (UniProt Q969M7)
inactive: alvocidib -0.022 | Tubastatin A -0.049 | [1] -0.009 | defactinib 0.101 | [2] -0.051 | encorafenib -0.075 | [3] -0.044 | alisertib -0.071 | [4] 0.012 | gefitinib 0.061 | lapatinib -0.011 | pictilisib -0.014 | crizotinib 0.021 | [5] 0.045 | duvelisib -0.016 | gandotinib -0.001 | tozasertib -0.049 | doramapimod -0.034 | bafetinib 0.149 | [6] -0.07

UBR2 isoform 4 (UniProt Q8IWV8)
inactive: alvocidib 0.008 | Tubastatin A -0.12 | [1] 0.001 | defactinib 0.024 | [2] -0.02 | encorafenib 0.026 | [3] 0.142 | alisertib -0.012 | [4] 0.04 | gefitinib 0.019 | lapatinib -0.023 | pictilisib -0.013 | crizotinib -0.082 | [5] -0.017 | duvelisib -0.017 | gandotinib -0.053 | tozasertib -0.009 | doramapimod 0.013 | bafetinib -0.082 | [6] -0.01

UBXN4 (UniProt Q92575)
inactive: alvocidib 0.003 | Tubastatin A 0.009 | [1] 0.029 | defactinib -0.038 | [2] -0.019 | encorafenib 0.024 | [3] -0.029 | alisertib -0.076 | [4] 0.05 | gefitinib -0.104 | lapatinib -0.004 | pictilisib -0.043 | crizotinib -0.017 | [5] -0.176 | duvelisib -0.004 | gandotinib 0.164 | tozasertib 0.015 | doramapimod -0.002 | bafetinib 0.012 | [6] 0.239

UBLCP1 (UniProt Q8WVY7)
inactive: alvocidib 0.058 | Tubastatin A -0.039 | [1] 0.016 | defactinib 0.035 | [2] -0.07 | encorafenib 0.026 | [3] -0.113 | alisertib -0.045 | [4] -0.017 | gefitinib 0.002 | lapatinib 0.023 | pictilisib -0.041 | crizotinib 0.033 | [5] 0.113 | duvelisib 0.017 | gandotinib -0.083 | tozasertib 0.102 | doramapimod -0.006 | bafetinib -0.028 | [6] -0.057

UBAC1 (UniProt Q9BSL1)
inactive: alvocidib 0.047 | Tubastatin A 0.019 | [1] -0.004 | defactinib -0.001 | [2] 0.023 | encorafenib -0.005 | [3] -0.034 | alisertib -0.016 | [4] -0.006 | gefitinib 0.013 | lapatinib 0.002 | pictilisib 0.016 | crizotinib 0.004 | [5] 0.087 | duvelisib 0.017 | gandotinib -0.011 | tozasertib 0.037 | doramapimod 0.014 | bafetinib 0.028 | [6] -0.039

UCK2 (UniProt Q9BZX2)
inactive: alvocidib -0.023 | Tubastatin A -0.071 | [1] 0.031 | defactinib 0.096 | [2] -0.052 | encorafenib 0.023 | [3] 0.02 | alisertib 0.075 | [4] -0.016 | gefitinib 0.026 | lapatinib 0.063 | pictilisib 0 | crizotinib -0.016 | [5] -0.091 | duvelisib 0.001 | gandotinib -0.037 | tozasertib -0.02 | doramapimod 0.075 | bafetinib -0.069 | [6] 0.04

UCHL3 (UniProt P15374)
inactive: alvocidib 0.014 | Tubastatin A -0.004 | [1] -0.017 | defactinib 0.042 | [2] -0.108 | encorafenib 0.007 | [3] -0.027 | alisertib 0.029 | [4] -0.004 | gefitinib -0.019 | lapatinib 0.011 | pictilisib 0.015 | crizotinib 0.055 | [5] -0.05 | duvelisib 0.023 | gandotinib -0.016 | tozasertib 0 | doramapimod -0.005 | bafetinib 0.066 | [6] 0.009

Reference: the supplement of paper PMC10849652
